Experimental data: PubChem BioAssay AID652259 (Drosophila RNAi Screening Center, 2013)
The screen tested about 22,000 reagents; shown is a random part of those that have a named target and a result. Of all reagents, 233 (1.1%) were called active. 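Light values are raw, unnormalised plate reads; the ratio scores behind the reporter calls were not deposited.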 The record does not give: the amount of reagent, the time to read-out, the dose of the treatment.

Screen: 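Genome-wide hunt for genes that control Wingless pathway activity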 (primary screen)
Cell system: Drosophila clone 8 imaginal disc epithelial cells
Knock-down reagent: long dsRNA against Drosophila genes
Conditions: pathway stimulated by co-transfected Wingless expression plasmid
Measurement: 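Dual luciferase reads per well after Wingless plasmid stimulation: reporter firefly light and Renilla control light; activity is firefly divided by Renilla, a ratio not deposited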
Scale: firefly reporter light: higher = more Wg reporter light, before normalisation; Renilla control light: higher = more transfected or surviving cells
Hit rule: 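a knock-down is a candidate when at least two out of four statistical tests show it departing from its plate mean; one test alone signals a weak candidate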
Calls: active = candidate regulator (raises or lowers reporter); inactive = not a candidate

After knock-down of Ack [DRSC08135], the screen gave firefly reporter light, replicate 1 = 4307; Renilla control light, replicate 1 = 1691; inactive.
With knock-down of Taf3 [DRSC17170], the record shows firefly reporter light, replicate 1 = 3384; firefly reporter light, replicate 2 = 6013; Renilla control light, replicate 1 = 737; Renilla control light, replicate 2 = 1090; inactive.
Knock-down of CG3117 [DRSC00568] gave: firefly reporter light, replicate 1 = 1894; firefly reporter light, replicate 2 = 8161; Renilla control light, replicate 1 = 935; Renilla control light, replicate 2 = 2640; inactive.
After knock-down of CG14490 [DRSC06461], the screen gave firefly reporter light, replicate 1 = 7066; Renilla control light, replicate 1 = 2211; inactive.
Against CG31141 [DRSC13646] the deposit lists firefly reporter light, replicate 1 = 4660; Renilla control light, replicate 1 = 1493; inactive.
For CG30116 [DRSC05935] the deposit lists firefly reporter light, replicate 1 = 16627; Renilla control light, replicate 1 = 4026; inactive.
Against CG30116 [DRSC06685], the values are firefly reporter light, replicate 1 = 6010; Renilla control light, replicate 1 = 2449; inactive.
With knock-down of CG3701 (retired record) [DRSC04408], the record shows firefly reporter light, replicate 1 = 3920; firefly reporter light, replicate 2 = 4681; Renilla control light, replicate 1 = 377; Renilla control light, replicate 2 = 2662; inactive.
After knock-down of CG3701 (retired record) [DRSC04409] the results were firefly reporter light, replicate 1 = 4003; firefly reporter light, replicate 2 = 5428; Renilla control light, replicate 1 = 536; Renilla control light, replicate 2 = 2746; inactive.
For mRRF2 [DRSC16143], the values are firefly reporter light, replicate 1 = 17152; Renilla control light, replicate 1 = 13703; inactive.
For CG15864 [DRSC15122], the entry reads firefly reporter light, replicate 1 = 17277; Renilla control light, replicate 1 = 3473; inactive.
Depletion of flw [DRSC17992] resulted in: firefly reporter light, replicate 1 = 20379; Renilla control light, replicate 1 = 15206; inactive.
flw [DRSC18774] scored firefly reporter light, replicate 1 = 13858; Renilla control light, replicate 1 = 10377; inactive.
